Test results reported in PMC8973297, “Synthesis and evaluation of new chalcones and oximes as anticancer agents” (RSC Advances, 2022).

The compounds below were run on Huvec (assay: In vitro cytotoxicity in normal human umbilical vein endothelial cells (MTT)).
Assay type: cell-based
Description: To see how harmful the target compounds were to normal cells, Huvec cells were chosen and treated with all of the compounds at the same time and in the same way as previously reported.[6,27] […] The in vitro therapeutic index (IVTI) was then calculated. It was determined by comparing the cytotoxicity activity (IC50) of compounds against MCF-7 cells, which were the most sensitive to the test compounds, to that of compounds against Huvec cells. IVTI was above 7 for all compounds.
All of the cell lines that were used were grown as described. A new medium was put in place after 24 hours. […] In order to make a stock solution of 10 mM, all of the compounds were mixed with DMSO. The final solutions were made by diluting the stock solution with the right volume of liquid in the media, keeping the final DMSO content at 0.5 percent. In every case, a triplicate was always made on the same plate. After 72 hours, 0.25 mg mL^−1 of MTT was added and incubated for 3 hours. The medium was taken out, and DMSO was added to dissolve the formazan crystals that were in it. To figure out how much the formazan absorbs, an ELISA plate reader was used to measure the absorbance at 570 nm. The background absorbance was measured at 690 nm. This is how the 690 nm background absorbance was taken out of the values at 570 nm. The average of the three repeats for each condition was found. In order to make the data easier to read, it was compared to the DMSO control cells that had 100% survival rate. The curves were made with GraphPad Prism, and the IC50 values were found from the plots.

First: Cc1nc(C)c(/C=C/C(=O)c2ccco2)nc1C [Compound 8a, (E)-1-(Furan-2-yl)-3-(3,5,6-trimethylpyrazin-2-yl)prop-2-en-1-one]
Second: Cc1nc(C)c(/C=C/C(=N\O)c2ccco2)nc1C [Compound 10a, (1E,2E)-1-(Furan-2-yl)-3-(3,5,6-trimethylpyrazin-2-yl)prop-2-en-1-one oxime]
The “IVTI, in vitro therapeutic index (Huvec IC50/MCF-7 IC50)” value of the first is lower: 19.72 for the first, 21.69 for the second.

Compared with `Cc1ccc(C(=O)/C=C/c2nc(C)c(C)nc2C)o1` [Compound 8b, (E)-1-(5-Methylfuran-2-yl)-3-(3,5,6-trimethylpyrazin-2-yl)prop-2-en-1-one], `Cc1ccc(C(=O)/C=C/c2nc(C)c(C)nc2C)s1` [Compound 8f, (E)-1-(5-Methylthiophen-2-yl)-3-(3,5,6-trimethylpyrazin-2-yl)prop-2-en-1-one] is higher in “IVTI, in vitro therapeutic index (Huvec IC50/MCF-7 IC50)” value: 9.20 for the first, 11.83 for the second.

Going from `Cc1nc(C)c(/C=C/C(=O)c2cc3ccccc3o2)nc1C` [Compound 8c, (E)-1-(Benzofuran-2-yl)-3-(3,5,6-trimethylpyrazin-2-yl)prop-2-en-1-one] to `Cc1nc(C)c(/C=C/C(=N/O)c2cc3ccccc3o2)nc1C` [Compound 10c, (1Z,2E)-1-(Benzofuran-2-yl)-3-(3,5,6-trimethylpyrazin-2-yl)prop-2-en-1-one oxime], the “IVTI, in vitro therapeutic index (Huvec IC50/MCF-7 IC50)” value rises from 7.91 to 16.29.

Going from `COc1ccc2oc(C(=O)/C=C/c3nc(C)c(C)nc3C)cc2c1` [Compound 8d, (E)-1-(5-Methoxybenzofuran-2-yl)-3-(3,5,6-trimethylpyrazin-2-yl)prop-2-en-1-one] to `COc1ccc2oc(C(/C=C/c3nc(C)c(C)nc3C)=N\O)cc2c1` [Compound 10d, (1Z,2E)-1-(5-Methoxybenzofuran-2-yl)-3-(3,5,6-trimethylpyrazin-2-yl)prop-2-en-1-one oxime], the “IVTI, in vitro therapeutic index (Huvec IC50/MCF-7 IC50)” value rises from 12.80 to 28.26.

First: Cc1nc(C)c(/C=C/C(=O)c2cccs2)nc1C [Compound 8e, (E)-1-(Thiophen-2-yl)-3-(3,5,6-trimethylpyrazin-2-yl)prop-2-en-1-one]
Second: Cc1nc(C)c(/C=C/C(=N/O)c2cccs2)nc1C [Compound 10e, (1Z,2E)-1-(Thiophen-2-yl)-3-(3,5,6-trimethylpyrazin-2-yl)prop-2-en-1-one oxime]
The “IVTI, in vitro therapeutic index (Huvec IC50/MCF-7 IC50)” value of the first is lower: 11.01 for the first, 38.33 for the second.

Compared with `Cc1nc(C)c(/C=C/C(=O)c2cc3ccccc3s2)nc1C` [Compound 8g, (E)-1-(Benzo[b]thiophen-2-yl)-3-(3,5,6-trimethylpyrazin-2-yl)prop-2-en-1-one], `Cc1nc(C)c(/C=C/C(=N/O)c2cc3ccccc3s2)nc1C` [Compound 10g, (1Z,2E)-1-(Benzo[b]thiophen-2-yl)-3-(3,5,6-trimethylpyrazin-2-yl)prop-2-en-1-one oxime] is higher in “IVTI, in vitro therapeutic index (Huvec IC50/MCF-7 IC50)” value: 8.20 for the first, 17.58 for the second.

Compared with `Cc1nc(C)c(/C=C/C(=O)c2ccc(-c3ccco3)cc2)nc1C` [Compound 9a, (E)-1-(4-(Furan-2-yl)phenyl)-3-(3,5,6-trimethylpyrazin-2-yl)prop-2-en-1-one], `Cc1nc(C)c(/C=C/C(=N/O)c2ccc(-c3ccco3)cc2)nc1C` [Compound 11a, (1Z,2E)-1-(4-(Furan-2-yl)phenyl)-3-(3,5,6-trimethylpyrazin-2-yl)prop-2-en-1-one oxime] is higher in “IVTI, in vitro therapeutic index (Huvec IC50/MCF-7 IC50)” value: 10.58 for the first, 29.26 for the second.

First: Cc1ccc(-c2ccc(C(=O)/C=C/c3nc(C)c(C)nc3C)cc2)o1 [Compound 9b, (E)-1-(4-(5-Methylfuran-2-yl)phenyl)-3-(3,5,6-trimethylpyrazin-2-yl)prop-2-en-1-one]
Second: Cc1ccc(-c2ccc(C(/C=C/c3nc(C)c(C)nc3C)=N\O)cc2)o1 [Compound 11b, (1Z,2E)-1-(4-(5-Methylfuran-2-yl)phenyl)-3-(3,5,6-trimethylpyrazin-2-yl)prop-2-en-1-one oxime]
The “IVTI, in vitro therapeutic index (Huvec IC50/MCF-7 IC50)” value of the first is lower: 8.11 for the first, 15.82 for the second.

Compared with `Cc1nc(C)c(/C=C/C(=O)c2ccc(-c3cc4ccccc4o3)cc2)nc1C` [Compound 9c, (E)-1-(4-(Benzofuran-2-yl)phenyl)-3-(3,5,6-trimethylpyrazin-2-yl)prop-2-en-1-one], `Cc1nc(C)c(/C=C/C(=N/O)c2ccc(-c3cc4ccccc4o3)cc2)nc1C` [Compound 11c, (1Z,2E)-1-(4-(Benzofuran-2-yl)phenyl)-3-(3,5,6-trimethylpyrazin-2-yl)prop-2-en-1-one oxime] is higher in “IVTI, in vitro therapeutic index (Huvec IC50/MCF-7 IC50)” value: 7.25 for the first, 12.36 for the second.

Going from `Cc1nc(C)c(/C=C/C(=O)c2ccc(-c3cccs3)cc2)nc1C` [Compound 9d, (E)-1-(4-(Thiophen-2-yl)phenyl)-3-(3,5,6-trimethylpyrazin-2-yl)prop-2-en-1-one] to `Cc1nc(C)c(/C=C/C(=N/O)c2ccc(-c3cccs3)cc2)nc1C` [Compound 11d, (1Z,2E)-1-(4-(Thiophen-2-yl)phenyl)-3-(3,5,6-trimethylpyrazin-2-yl)prop-2-en-1-one oxime], the “IVTI, in vitro therapeutic index (Huvec IC50/MCF-7 IC50)” value rises from 12.17 to 111.39.

Going from `Cc1csc(-c2ccc(C(=O)/C=C/c3nc(C)c(C)nc3C)cc2)c1` [Compound 9e, (E)-1-(4-(4-Methylthiophen-2-yl)phenyl)-3-(3,5,6-trimethylpyrazin-2-yl)prop-2-en-1-one] to `Cc1nc(C)c(/C=C/C(=O)c2ccc(-c3sccc3Cl)cc2)nc1C` [Compound 9f, (E)-1-(4-(3-Chlorothiophen-2-yl)phenyl)-3-(3,5,6-trimethylpyrazin-2-yl)prop-2-en-1-one], the “IVTI, in vitro therapeutic index (Huvec IC50/MCF-7 IC50)” value falls from 10.79 to 10.75.

Compared with `Cc1nc(C)c(/C=C/C(=O)c2ccc(-c3ccc(Br)s3)cc2)nc1C` [Compound 9g, (E)-1-(4-(5-Bromothiophen-2-yl)phenyl)-3-(3,5,6-trimethylpyrazin-2-yl)prop-2-en-1-one], `Cc1ccc(C(/C=C/c2nc(C)c(C)nc2C)=N\O)s1` [Compound 10f, (1Z,2E)-1-(5-Methylthiophen-2-yl)-3-(3,5,6-trimethylpyrazin-2-yl)prop-2-en-1-one oxime] is higher in “IVTI, in vitro therapeutic index (Huvec IC50/MCF-7 IC50)” value: 12.20 for the first, 98.82 for the second.
